The values below come from article doi:10.1101/2025.04.12.648529.

Amino acid sequences for entries named in this document (tags omitted).
UniProt Q1XH10: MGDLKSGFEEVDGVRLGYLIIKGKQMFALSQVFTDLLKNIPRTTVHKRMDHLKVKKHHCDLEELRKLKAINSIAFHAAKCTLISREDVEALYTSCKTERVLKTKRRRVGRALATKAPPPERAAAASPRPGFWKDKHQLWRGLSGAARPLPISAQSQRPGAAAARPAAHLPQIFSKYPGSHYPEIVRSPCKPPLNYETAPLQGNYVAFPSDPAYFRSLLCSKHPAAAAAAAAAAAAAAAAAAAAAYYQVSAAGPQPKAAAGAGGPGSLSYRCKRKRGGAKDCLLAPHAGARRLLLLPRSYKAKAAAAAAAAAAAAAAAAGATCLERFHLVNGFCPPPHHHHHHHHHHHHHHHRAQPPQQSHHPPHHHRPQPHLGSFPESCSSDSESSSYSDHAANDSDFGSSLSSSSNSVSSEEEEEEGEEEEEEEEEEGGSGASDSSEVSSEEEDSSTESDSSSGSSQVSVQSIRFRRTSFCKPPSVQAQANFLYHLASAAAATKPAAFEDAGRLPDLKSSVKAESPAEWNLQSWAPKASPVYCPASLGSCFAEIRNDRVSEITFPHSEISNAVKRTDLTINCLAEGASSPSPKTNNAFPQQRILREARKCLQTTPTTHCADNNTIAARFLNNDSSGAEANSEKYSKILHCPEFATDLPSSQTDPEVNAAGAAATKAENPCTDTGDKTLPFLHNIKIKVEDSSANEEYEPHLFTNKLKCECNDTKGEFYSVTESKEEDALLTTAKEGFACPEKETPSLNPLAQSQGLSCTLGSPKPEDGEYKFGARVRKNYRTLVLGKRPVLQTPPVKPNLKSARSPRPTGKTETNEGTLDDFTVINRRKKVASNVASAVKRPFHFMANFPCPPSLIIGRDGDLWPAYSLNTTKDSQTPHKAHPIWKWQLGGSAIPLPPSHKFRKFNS
UniProt Q9Y483: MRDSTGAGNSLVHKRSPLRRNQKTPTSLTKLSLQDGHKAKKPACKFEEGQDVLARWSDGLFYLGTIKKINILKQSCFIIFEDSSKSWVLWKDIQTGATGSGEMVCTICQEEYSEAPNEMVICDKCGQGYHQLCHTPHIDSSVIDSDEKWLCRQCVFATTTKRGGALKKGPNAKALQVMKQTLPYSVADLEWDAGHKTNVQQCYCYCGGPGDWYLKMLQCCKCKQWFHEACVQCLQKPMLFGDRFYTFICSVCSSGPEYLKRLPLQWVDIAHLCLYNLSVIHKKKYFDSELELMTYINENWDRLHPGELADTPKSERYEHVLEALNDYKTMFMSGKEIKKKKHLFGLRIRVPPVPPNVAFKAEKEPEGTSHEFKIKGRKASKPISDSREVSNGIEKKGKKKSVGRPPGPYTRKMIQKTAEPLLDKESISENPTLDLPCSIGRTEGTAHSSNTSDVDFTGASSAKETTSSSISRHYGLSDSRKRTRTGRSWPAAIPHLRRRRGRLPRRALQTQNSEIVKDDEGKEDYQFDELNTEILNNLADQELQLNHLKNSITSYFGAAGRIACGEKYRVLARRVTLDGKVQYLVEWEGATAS
UniProt Q15022: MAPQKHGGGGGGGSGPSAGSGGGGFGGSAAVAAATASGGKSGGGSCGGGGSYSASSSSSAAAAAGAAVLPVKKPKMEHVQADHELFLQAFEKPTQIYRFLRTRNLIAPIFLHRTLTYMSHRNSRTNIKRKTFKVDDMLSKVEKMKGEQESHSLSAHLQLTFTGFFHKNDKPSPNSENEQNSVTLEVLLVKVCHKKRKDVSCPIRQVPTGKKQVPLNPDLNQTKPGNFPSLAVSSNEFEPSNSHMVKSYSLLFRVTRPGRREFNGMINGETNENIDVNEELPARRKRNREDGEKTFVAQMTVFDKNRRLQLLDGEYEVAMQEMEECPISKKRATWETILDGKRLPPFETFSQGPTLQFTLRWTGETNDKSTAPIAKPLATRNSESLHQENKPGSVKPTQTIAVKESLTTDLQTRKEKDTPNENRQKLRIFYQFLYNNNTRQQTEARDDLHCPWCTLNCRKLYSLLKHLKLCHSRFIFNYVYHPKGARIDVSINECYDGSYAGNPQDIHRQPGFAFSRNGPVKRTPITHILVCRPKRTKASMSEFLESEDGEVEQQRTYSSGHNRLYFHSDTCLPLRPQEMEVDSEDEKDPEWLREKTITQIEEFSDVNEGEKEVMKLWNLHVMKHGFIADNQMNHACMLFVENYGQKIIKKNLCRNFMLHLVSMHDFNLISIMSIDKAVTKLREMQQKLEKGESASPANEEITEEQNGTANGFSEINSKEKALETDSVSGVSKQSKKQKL

These are yes or no findings as the source states them, for the method shown. In cells and extracts the contact can be indirect. Some results given as binding are weak or reduced against the parent protein; the word gives no strength.

The assay deals with SKIDA1-3xFLAG (UniProt Q1XH10). As to the kind of experiment: co-IP.

Turning to MTF2 (from UniProt Q9Y483 1-593), the binding entry is on record as “binds weakly”.
As for SUZ12 (from UniProt Q15022 1-739), the binding entry is recorded as “binds weakly”.
